Measurements reported in PubChem BioAssay AID743458 (Peter MacCallum Cancer Centre, 2014).

- Assay: 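Retest earlier hits with independent siRNAs per gene for restoring vorinostat sensitivity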 (follow-up of hits)
- Cell system: human HCT116-VR colon cancer cells made resistant to vorinostat
- Reagent: single siRNA or pool against human genes, 25 nM per single siRNA
- Time to read-out: about 72 h after transfection, including 24 h of drug
- Treatment: vorinostat, 2.5 µM final, for 24 h
- Read-out: 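Live-cell fluorescent viability and luminescent caspase 3/7 activity after vorinostat treatment, background subtracted, mean of duplicate plates, as fold change over mock-transfected wells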
- Reading the numbers: viability relative to mock: higher = more living cells than mock; caspase activity relative to mock: higher = more apoptosis than mock
- Hit rule: 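An siRNA counts as active if classed as reduced viability or as caspase activation, otherwise inactive; a hit class needed wells that remained healthy in the absence of drug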
The deposit covers about 1,800 reagents; this is a random part of them. 732 of all reagents (41%) count as active. 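Calls are per siRNA reagent; a gene was deemed confirmed only if most of its four siRNAs scored.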 Unmarked entries are inactive. Reagents against one gene are numbered here.

| gene | reagent no. | viability relative to mock | caspase activity relative to mock | viability hit class | caspase hit class |
| --- | --- | --- | --- | --- | --- |
| ACO2 (GeneID 50) | 1 | 0.91 | 0.94 | no change | no change |
| ACO2 (GeneID 50) | 2 | 0.99 | 1.3 | no change | no change |
| ACO2 (GeneID 50) | 3 | 0.64 | 1.15 | no change | no change |
| ACO2 (GeneID 50) | 4 | 0.48 (active) | 0.72 | reduced viability | no change |
| RNF186 (GeneID 54546) | 1 | 0.61 (active) | 3.92 | no change | caspase activation |
| RNF186 (GeneID 54546) | 2 | 0.76 | 2.42 | no change | no change |
| RNF186 (GeneID 54546) | 3 | 0.88 | 1.48 | no change | no change |
| RNF186 (GeneID 54546) | 4 | 0.36 (active) | 2.47 | reduced viability | no change |
| BNIP2 (GeneID 663) | 1 | 1.09 | 1 | no change | no change |
| BNIP2 (GeneID 663) | 2 | 0.53 (active) | 2.17 | reduced viability | no change |
| BNIP2 (GeneID 663) | 3 | 0.92 (active) | 3.62 | no change | caspase activation |
| BNIP2 (GeneID 663) | 4 | 0.8 | 2.15 | no change | no change |
| RRM1 (GeneID 6240) | 1 | 0.19 | 4.53 | no change | no change |
| RRM1 (GeneID 6240) | 2 | 0.62 (active) | 2.63 | no change | caspase activation |
| RRM1 (GeneID 6240) | 3 | 0.58 (active) | 5.13 | no change | caspase activation |
| RRM1 (GeneID 6240) | 4 | 0.92 | 0.92 | no change | no change |
| THAP1 (GeneID 55145) | 1 | 0.62 (active) | 3.5 | no change | caspase activation |
| THAP1 (GeneID 55145) | 2 | 0.76 | 1.83 | no change | no change |
| THAP1 (GeneID 55145) | 3 | 0.79 | 2.33 | no change | no change |
| THAP1 (GeneID 55145) | 4 | 0.55 (active) | 4.48 | reduced viability | caspase activation |
| MAGOH (GeneID 4116) | 1 | 0.28 (active) | 3.56 | reduced viability | caspase activation |
| MAGOH (GeneID 4116) | 2 | 0.47 (active) | 2.45 | reduced viability | no change |
| MAGOH (GeneID 4116) | 3 | 0.6 | 1.6 | no change | no change |
| MAGOH (GeneID 4116) | 4 | 0.18 (active) | 3.12 | reduced viability | caspase activation |

3 entries from above, sorted by “viability relative to mock”, highest first:
| gene | reagent no. | viability relative to mock | caspase activity relative to mock | viability hit class | caspase hit class |
| --- | --- | --- | --- | --- | --- |
| RRM1 (GeneID 6240) | 2 | 0.62 (active) | 2.63 | no change | caspase activation |
| RRM1 (GeneID 6240) | 3 | 0.58 (active) | 5.13 | no change | caspase activation |
| RRM1 (GeneID 6240) | 1 | 0.19 | 4.53 | no change | no change |

Additional results follow:
| gene | reagent no. | viability relative to mock | caspase activity relative to mock | viability hit class | caspase hit class |
| --- | --- | --- | --- | --- | --- |
| CATSPERT (GeneID 151254) | 1 | 0.84 | 1.17 | no change | no change |
| CATSPERT (GeneID 151254) | 2 | 0.55 (active) | 2.22 | reduced viability | no change |
| CATSPERT (GeneID 151254) | 3 | 0.92 | 1.02 | no change | no change |
| CATSPERT (GeneID 151254) | 4 | 0.44 (active) | 3.77 | reduced viability | caspase activation |
| OR7E85BP (GeneID 650293) | 1 | 0.72 | 0.57 | no change | no change |
| OR7E85BP (GeneID 650293) | 2 | 0.22 (active) | 4.34 | reduced viability | caspase activation |
| OR7E85BP (GeneID 650293) | 3 | 0.52 (active) | 1.94 | reduced viability | no change |
| MRPS11 (GeneID 64963) | 1 | 0.55 (active) | 1.63 | reduced viability | no change |
| MRPS11 (GeneID 64963) | 2 | 0.84 (active) | 3.28 | no change | caspase activation |
| MRPS11 (GeneID 64963) | 3 | 0.94 | 1.96 | no change | no change |
| MRPS11 (GeneID 64963) | 4 | 0.18 (active) | 3.14 | reduced viability | caspase activation |
| BCL3 (GeneID 602) | 1 | 0.38 (active) | 4.05 | reduced viability | caspase activation |
| BCL3 (GeneID 602) | 2 | 0.76 | 1.57 | no change | no change |
| BCL3 (GeneID 602) | 3 | 0.86 | 1.27 | no change | no change |
| BCL3 (GeneID 602) | 4 | 1.09 | 1.3 | no change | no change |
